# Data published in PubChem BioAssay (NCATS).
# By UniProt entry, the sequences of proteins in these tests, tags left out. Where a name states a change or a piece, a line headed by the entry shows the natural chain unless it says otherwise.
# UniProt Q99816: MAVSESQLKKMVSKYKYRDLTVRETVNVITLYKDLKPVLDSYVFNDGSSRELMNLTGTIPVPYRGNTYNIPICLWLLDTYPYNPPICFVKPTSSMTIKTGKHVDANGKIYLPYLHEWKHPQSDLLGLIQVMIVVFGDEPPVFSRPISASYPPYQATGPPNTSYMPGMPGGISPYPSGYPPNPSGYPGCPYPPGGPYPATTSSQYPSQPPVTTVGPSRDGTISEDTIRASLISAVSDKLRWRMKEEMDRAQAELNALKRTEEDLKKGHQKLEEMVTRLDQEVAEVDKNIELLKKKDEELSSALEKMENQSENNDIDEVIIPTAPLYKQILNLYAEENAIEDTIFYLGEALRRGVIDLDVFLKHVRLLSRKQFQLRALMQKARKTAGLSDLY
# This list was built around the results that the source calls inconclusive (neither active nor inactive); the mix of calls is not that of the screen. A call without a number means that no potency is given here. For some assays here: Where the call is inconclusive, the potency comes from a doubtful curve fit. Calls of active or inactive are those of the source. Unless noted, calls follow the shape of the dose curve; as a rule, active = well fitted curve in the direction sought with a large enough effect; inconclusive = small, poorly fitted or top-dose-only effect, or another doubt; inactive = no such curve, though single readings can be large; an effect the other way counts as inactive or inconclusive.
# Experiments:
# [1] = target: Tumor susceptibility gene 101 protein (Homo sapiens) (UniProt Q99816); assay: qHTS Assay for Iinhibitors of HIV-1 Budding by Blocking the Interaction of PTAP/TSG101: Hit Validation (AID 651600); details: PTAP peptide/TSG101 UEV interaction, biochemical assay; series mostly up to 57.5 µM; also: nearly all actives have a fitted effect of over 70% in size; also: potency is read from the fitted curve at half-maximal effect
# Outline: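 Displacement of a FITC-labeled PTAP-motif peptide (50 nM) from the Tsg101 binding domain (10 uM) was monitored by fluorescence polarization after a 20 min room-temperature incubation.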
# [2] = Cellular Toxicity (caspase-3) Jurkat (AID 655); details: Jurkat caspase-3 activation, luminescence, DMSO = 0%, tamoxifen = 100%; at 92.2 µM (top of the series);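 also: cells exposed to compound for 16 h at 37 °C before reading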
# Outline: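 Caspase 3/7 activation is scored as increased luminescence in Jurkat cells cultured with compound for 16 hours in complete medium. AC50 values come from Hill fits of qHTS concentration-response data normalized to DMSO and 100 uM tamoxifen controls.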
# [3] = Cell Viability - LYMP2-026 (AID 989); details: LYMP2-026 lymphoblastoid cell viability, qHTS; series mostly up to 92.2 µM; also: nearly all actives have a fitted effect of over 50% in size
# Outline: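 Human lymphoblastoid LYMP2-026 cells, 2500/well, exposed to compound 24 h at 37 C in complete medium. Viability as intracellular ATP by CellTiter-Glo luminescence; AC50 from Hill fits of qHTS concentration-response.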
# [4] = qHTS assay for small molecule activators of the p53 signaling pathway (AID 651743; active = well fitted activation curve with a large enough effect in the signal ratio, not every such curve was filed as active; inconclusive = small, poorly fitted or top-dose-only effect, or a change in a side signal; the % refers to the signal ratio); details: HCT-116 p53RE-bla, beta-lactamase FRET ratio, 16 h; activation: active compounds read high
# Outline: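 p53RE-bla HCT-116 cells carrying a beta-lactamase reporter under p53 response elements were exposed to compounds for 16 hours at 37 C. Reporter activity read as fluorescence after 2 hours at room temperature with LiveBLAzer B/G FRET substrate.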
# [5] = qHTS assay for small molecule disruptors of the mitochondrial membrane potential - 5 hr assay (AID 651755; calls by dose curve; also: nearly all actives have a fitted effect of over 40% in size); details: JC-1-type ratio dye; ratio change, negative = disruption: at 92.2 µM (top of the series)
# Outline: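 HepG2 cells (2,000/well), attached overnight, exposed to compound 5 hr at 37C, then Mito-MPS dye 30 min. Fluorescence read for monomers (490/535 nm) and aggregates (540/590 nm).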
# [6] = Cellular Toxicity (caspase-3) HUV-EC-C (AID 656); details: HUV-EC-C cells, caspase-3 activation (apoptosis), vehicle = 0, 100 µM tamoxifen = 100%; at 92.2 µM (top of the series)
# Outline: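 Read-out: luminescence proportional to caspase 3/7 activity, measured 20 min after adding Caspase-Glo 3/7 reagent. Cells (HUV-EC-C) had received compound for 16 hr at 37°C. Increases relative to DMSO and 100 uM tamoxifen gave concentration-response AC50 values.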
# [7] = MultiTox-Fluor Cytotoxicity Assay - LYMP1-002 - Dead Cells (AID 960); details: LYMP1-002 lymphoblastoid cells, dead-cell protease fluorescence; cytotoxicity (dead cells): at 46.1 µM (top of the series); also: potency is read from the fitted curve at half-maximal effect; nearly all actives have a fitted effect of over 60% in size
# Outline: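 Human lymphoblastoid LYMP1-002 cells, 2500/well, treated 16 h at 37 C; dead-cell protease cleavage of bis-AAF-R110 read by fluorescence (485/520); normalized to DMSO and 15 uM tetraoctylammonium bromide; AC50 from Hill fit.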
# [8] = Cell Viability - LYMP2-008 (AID 980); details: LYMP2-008 lymphoblastoid cell viability, qHTS; series mostly up to 92.2 µM; also: nearly all actives have a fitted effect of over 60% in size
# Outline: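 LYMP2-008 lymphoblastoid cells (2500/well) plated 5 h, then treated 24 h at 37 C in complete medium. Viability read as intracellular ATP by CellTiter-Glo luminescence after 30 min at room temperature; AC50 from Hill fits.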
# [9] = qHTS assay for small molecule agonists of the antioxidant response element (ARE) signaling pathway measured by Nrf2-dependant transcriptional activity (AID 720636; active = well fitted curve in the direction sought with a large enough effect in the repeat runs; inconclusive = weak or mixed curves; inactive = no such curve, though single readings can be large; an effect the other way counts as inactive or inconclusive;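 also: HepG2 cells with an ARE-driven luciferase reporter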); details: ARE-luc HepG2, Nrf2 luciferase reporter, 16 h; series mostly up to 92.4 µM
# Outline: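 Reporter gene assay, HepG2 ARE-luc: 16 hr compound, 37 C, 5% CO2; read-out luciferase luminescence.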
compound,measurement,setting,value
O=C1NC(=S)/C(=C\c2ccc(-c3ccccc3Cl)o2)S1,Potency,[1],"inconclusive: 29.1 µM [inhibitor, single point]"
CC(=O)N/N=C/c1cc(C(C)C)cc(/C=N/NC(C)=O)c1O,Potency,[1],"inconclusive: 29.1 µM [inhibitor, single point]"
COc1ccccc1N1C(=O)C2C(C(=O)c3ccccc3)=NN(c3ccc(C)cc3)C2C1=O (stereo not drawn),Potency,[1],"inconclusive: 14.6 µM [inhibitor, single point]"
COCCNC(=S)N/N=C/c1c2ccccc2cc2ccccc12,Potency,[1],inactive
CC[C@@]1(C(=O)OC)N[C@H](CN(C)C(=O)c2ccc(C)cc2)[C@@H]2C(=O)N(Cc3ccccc3)C(=O)[C@@H]21,Potency,[1],inactive
CC1C2C(c3ccccc3)N(C)C(=O)N(C)C2N(C)C(=O)N1C (stereo not drawn),Potency,[1],inactive
CC(C)(C)OC(=O)NC(Cc1ccccc1)C(=O)N1CCC(C(=O)NCC(=O)Nc2ccc(F)cc2)CC1 (stereo not drawn),Potency,[1],inactive
N#Cc1ccsc1NC(=O)CSc1nncs1,Potency,[1],"inconclusive: 16.3 µM [inhibitor, partial curve, poor fit]"
ClCc1nc2ccccc2n1Cc1ccccc1,Potency,[1],inactive
Brc1ccc(C2=CC(c3ccco3)n3ncnc3N2)cc1 (stereo not drawn),Potency,[1],inactive
CCN(CC)C(=O)Cn1c(=O)c2ccccc2n2c(=S)sc(-c3cccc(C)c3)c12,Potency,[1],"inconclusive: 46.1 µM [inhibitor, single point]"
N=c1oc2ccc3ccccc3c2cc1-c1nc(-c2ccccc2)cs1,Potency,[1],"inconclusive: 11.6 µM [inhibitor, partial curve]"
COc1c([N+](=O)[O-])c(=O)n(-c2ccccc2)c2ccccc12,Potency,[1],"inconclusive: 36.6 µM [inhibitor, single point]"
Cn1nc([N+](=O)[O-])c(C(C#N)c2nc3ccccc3n2C)c(Cl)c1=O (stereo not drawn),Potency,[1],inactive
CCOC(=O)N1CCN(c2nc3ccccc3nc2C(C#N)S(=O)(=O)c2ccc(C)cc2)CC1 (stereo not drawn),Potency,[1],inactive
C=Cc1ccccc1C=C,caspase-3 activation,[2],inactive: -0.124%
same,Potency,[3],inactive
same,activation,[4],inactive: -1.45%
same,Potency,[5],inactive
CC(C)N=C=NC(C)C,caspase-3 activation,[6],inactive: 0.775%
same,Potency,[7],"inconclusive: 2 µM [cytotoxic, full curve]"
same,Potency,[8],inactive
same,Potency,[9],inactive

# Shown with tabs: part of the list above
compound	measurement	setting	value
CC(C)N=C=NC(C)C	Potency	[8]	inactive
same	Potency	[9]	inactive
